Measured values: paper PMC12711160 (Chemmedchem, 2025)

Assay: general procedure: Fmoc solid-phase peptide synthesis; NovaSyn TGR R resin (Merck); DIC/OxymaPure (automated); HOBt/DIC (manual)
Settings: whole synthesis, RP-HPLC, linear gradient 20-70% eluent B in A over 40 min, scale of the general procedure 15 µmol

Substance	final HPLC purity [%]
[K4(Diamine-4-OHT),F7,P34]-pNPY	> 88
APLEPVYPGDNATPEQMAQYAADLRRYINMLTRPRY-NH2	> 95
